# Measured values reported in the supplement of paper PMC12595434, “Development of retinoid nuclear receptor pathway antagonists through targeting aldehyde dehydrogenase 1A3” (iScience, 2025).
# Sequences of proteins named here, by UniProt entry; tags and fusion partners are left off. A change or cut given only in a name is not applied to a line headed by its entry.
# UniProt Q8NB15: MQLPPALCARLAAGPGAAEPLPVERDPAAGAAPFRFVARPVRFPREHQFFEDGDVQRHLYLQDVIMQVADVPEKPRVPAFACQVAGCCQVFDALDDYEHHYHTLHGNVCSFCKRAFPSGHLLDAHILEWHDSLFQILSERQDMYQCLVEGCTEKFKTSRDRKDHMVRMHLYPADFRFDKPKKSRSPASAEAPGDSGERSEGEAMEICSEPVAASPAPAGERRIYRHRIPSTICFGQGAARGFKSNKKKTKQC
# UniProt Q8WW01: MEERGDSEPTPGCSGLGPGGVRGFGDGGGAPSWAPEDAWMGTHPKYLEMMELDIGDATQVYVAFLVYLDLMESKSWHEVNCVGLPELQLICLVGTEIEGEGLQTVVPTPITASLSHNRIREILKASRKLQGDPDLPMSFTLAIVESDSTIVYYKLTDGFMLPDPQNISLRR
# UniProt Q8TAG9: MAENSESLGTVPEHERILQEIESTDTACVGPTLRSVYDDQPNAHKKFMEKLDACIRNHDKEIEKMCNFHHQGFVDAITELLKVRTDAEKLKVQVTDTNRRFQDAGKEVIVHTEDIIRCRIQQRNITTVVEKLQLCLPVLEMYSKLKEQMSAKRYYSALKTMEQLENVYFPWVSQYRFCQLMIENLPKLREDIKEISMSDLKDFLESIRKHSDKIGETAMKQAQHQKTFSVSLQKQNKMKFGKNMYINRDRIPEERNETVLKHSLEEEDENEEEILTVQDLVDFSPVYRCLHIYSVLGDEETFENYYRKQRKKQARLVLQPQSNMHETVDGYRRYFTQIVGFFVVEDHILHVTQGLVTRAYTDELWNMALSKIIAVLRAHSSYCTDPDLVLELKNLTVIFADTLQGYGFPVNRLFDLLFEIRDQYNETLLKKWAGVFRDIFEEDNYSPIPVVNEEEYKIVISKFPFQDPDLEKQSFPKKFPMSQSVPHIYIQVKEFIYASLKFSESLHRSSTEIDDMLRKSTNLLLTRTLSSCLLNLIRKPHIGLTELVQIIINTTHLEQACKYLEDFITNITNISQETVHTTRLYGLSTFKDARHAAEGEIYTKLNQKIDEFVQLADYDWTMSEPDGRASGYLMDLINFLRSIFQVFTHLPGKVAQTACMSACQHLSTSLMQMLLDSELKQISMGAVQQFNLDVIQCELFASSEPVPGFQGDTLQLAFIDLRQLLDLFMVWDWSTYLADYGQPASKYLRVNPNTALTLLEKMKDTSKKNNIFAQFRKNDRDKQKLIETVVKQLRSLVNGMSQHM
# UniProt Q8NFZ0: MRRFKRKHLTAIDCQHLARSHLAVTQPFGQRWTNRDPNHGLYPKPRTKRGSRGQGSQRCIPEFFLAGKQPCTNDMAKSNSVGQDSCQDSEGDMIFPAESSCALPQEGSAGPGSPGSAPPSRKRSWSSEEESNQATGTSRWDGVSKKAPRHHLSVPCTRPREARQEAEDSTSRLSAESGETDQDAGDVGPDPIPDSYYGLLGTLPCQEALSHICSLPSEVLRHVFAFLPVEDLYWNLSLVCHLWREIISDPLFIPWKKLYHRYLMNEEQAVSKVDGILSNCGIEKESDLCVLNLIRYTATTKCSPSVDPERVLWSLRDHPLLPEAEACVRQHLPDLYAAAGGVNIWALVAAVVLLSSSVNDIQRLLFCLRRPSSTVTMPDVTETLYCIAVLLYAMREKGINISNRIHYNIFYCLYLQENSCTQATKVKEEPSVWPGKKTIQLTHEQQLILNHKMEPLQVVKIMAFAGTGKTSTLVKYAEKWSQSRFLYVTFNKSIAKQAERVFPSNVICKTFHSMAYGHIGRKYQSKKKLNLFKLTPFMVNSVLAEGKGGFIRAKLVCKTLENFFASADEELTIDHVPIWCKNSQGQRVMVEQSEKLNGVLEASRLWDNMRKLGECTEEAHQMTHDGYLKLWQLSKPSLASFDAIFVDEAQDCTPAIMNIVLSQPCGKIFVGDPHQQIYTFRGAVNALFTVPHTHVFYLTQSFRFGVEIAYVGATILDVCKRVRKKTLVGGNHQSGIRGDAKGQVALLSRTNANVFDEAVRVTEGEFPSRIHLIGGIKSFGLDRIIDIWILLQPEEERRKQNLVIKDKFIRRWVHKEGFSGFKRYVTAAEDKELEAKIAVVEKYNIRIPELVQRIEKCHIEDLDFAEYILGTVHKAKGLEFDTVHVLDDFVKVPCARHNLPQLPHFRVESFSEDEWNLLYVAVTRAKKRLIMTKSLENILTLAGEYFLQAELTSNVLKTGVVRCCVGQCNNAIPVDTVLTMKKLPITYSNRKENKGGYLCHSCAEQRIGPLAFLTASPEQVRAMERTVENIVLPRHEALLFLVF
# UniProt Q8NCN5: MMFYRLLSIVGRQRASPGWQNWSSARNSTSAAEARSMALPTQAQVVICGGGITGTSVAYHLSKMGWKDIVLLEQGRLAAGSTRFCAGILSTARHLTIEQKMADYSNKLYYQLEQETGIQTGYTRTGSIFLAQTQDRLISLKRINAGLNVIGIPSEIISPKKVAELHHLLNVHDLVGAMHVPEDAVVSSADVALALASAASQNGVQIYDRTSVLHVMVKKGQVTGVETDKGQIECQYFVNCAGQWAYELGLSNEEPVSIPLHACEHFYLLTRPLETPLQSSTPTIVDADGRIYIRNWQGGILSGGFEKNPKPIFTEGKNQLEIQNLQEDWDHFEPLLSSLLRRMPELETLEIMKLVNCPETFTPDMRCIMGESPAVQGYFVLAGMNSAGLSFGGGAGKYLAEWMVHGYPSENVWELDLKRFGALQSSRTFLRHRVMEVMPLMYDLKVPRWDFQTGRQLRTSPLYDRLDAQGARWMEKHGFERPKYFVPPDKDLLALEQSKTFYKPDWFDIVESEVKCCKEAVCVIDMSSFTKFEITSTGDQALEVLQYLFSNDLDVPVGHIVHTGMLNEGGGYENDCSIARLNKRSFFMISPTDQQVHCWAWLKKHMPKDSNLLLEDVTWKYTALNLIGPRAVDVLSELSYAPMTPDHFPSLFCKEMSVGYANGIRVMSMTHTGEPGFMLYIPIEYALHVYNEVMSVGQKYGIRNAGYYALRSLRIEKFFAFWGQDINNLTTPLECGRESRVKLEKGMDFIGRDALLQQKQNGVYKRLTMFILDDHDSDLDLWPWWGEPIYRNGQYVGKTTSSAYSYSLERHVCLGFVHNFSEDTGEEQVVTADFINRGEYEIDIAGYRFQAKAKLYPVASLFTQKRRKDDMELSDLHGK
# UniProt Q8NFW8: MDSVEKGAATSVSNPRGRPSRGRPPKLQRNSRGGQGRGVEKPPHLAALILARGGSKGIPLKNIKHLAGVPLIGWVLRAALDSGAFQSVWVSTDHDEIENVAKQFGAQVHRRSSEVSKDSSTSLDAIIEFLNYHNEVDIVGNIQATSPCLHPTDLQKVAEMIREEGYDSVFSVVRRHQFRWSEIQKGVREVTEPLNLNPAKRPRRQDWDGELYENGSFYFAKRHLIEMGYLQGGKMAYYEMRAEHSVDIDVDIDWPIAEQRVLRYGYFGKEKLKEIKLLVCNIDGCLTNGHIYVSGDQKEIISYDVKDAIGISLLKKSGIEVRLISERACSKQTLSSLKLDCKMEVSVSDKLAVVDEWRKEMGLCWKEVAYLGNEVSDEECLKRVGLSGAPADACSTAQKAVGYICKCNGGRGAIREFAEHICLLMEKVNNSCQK
# UniProt Q8WUY8: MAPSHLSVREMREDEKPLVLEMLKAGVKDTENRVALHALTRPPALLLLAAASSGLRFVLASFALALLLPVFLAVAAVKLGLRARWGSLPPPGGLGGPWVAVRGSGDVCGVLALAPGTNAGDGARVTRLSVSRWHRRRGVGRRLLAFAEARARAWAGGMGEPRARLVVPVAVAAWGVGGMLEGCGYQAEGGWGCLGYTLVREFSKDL
# UniProt Q8TF72: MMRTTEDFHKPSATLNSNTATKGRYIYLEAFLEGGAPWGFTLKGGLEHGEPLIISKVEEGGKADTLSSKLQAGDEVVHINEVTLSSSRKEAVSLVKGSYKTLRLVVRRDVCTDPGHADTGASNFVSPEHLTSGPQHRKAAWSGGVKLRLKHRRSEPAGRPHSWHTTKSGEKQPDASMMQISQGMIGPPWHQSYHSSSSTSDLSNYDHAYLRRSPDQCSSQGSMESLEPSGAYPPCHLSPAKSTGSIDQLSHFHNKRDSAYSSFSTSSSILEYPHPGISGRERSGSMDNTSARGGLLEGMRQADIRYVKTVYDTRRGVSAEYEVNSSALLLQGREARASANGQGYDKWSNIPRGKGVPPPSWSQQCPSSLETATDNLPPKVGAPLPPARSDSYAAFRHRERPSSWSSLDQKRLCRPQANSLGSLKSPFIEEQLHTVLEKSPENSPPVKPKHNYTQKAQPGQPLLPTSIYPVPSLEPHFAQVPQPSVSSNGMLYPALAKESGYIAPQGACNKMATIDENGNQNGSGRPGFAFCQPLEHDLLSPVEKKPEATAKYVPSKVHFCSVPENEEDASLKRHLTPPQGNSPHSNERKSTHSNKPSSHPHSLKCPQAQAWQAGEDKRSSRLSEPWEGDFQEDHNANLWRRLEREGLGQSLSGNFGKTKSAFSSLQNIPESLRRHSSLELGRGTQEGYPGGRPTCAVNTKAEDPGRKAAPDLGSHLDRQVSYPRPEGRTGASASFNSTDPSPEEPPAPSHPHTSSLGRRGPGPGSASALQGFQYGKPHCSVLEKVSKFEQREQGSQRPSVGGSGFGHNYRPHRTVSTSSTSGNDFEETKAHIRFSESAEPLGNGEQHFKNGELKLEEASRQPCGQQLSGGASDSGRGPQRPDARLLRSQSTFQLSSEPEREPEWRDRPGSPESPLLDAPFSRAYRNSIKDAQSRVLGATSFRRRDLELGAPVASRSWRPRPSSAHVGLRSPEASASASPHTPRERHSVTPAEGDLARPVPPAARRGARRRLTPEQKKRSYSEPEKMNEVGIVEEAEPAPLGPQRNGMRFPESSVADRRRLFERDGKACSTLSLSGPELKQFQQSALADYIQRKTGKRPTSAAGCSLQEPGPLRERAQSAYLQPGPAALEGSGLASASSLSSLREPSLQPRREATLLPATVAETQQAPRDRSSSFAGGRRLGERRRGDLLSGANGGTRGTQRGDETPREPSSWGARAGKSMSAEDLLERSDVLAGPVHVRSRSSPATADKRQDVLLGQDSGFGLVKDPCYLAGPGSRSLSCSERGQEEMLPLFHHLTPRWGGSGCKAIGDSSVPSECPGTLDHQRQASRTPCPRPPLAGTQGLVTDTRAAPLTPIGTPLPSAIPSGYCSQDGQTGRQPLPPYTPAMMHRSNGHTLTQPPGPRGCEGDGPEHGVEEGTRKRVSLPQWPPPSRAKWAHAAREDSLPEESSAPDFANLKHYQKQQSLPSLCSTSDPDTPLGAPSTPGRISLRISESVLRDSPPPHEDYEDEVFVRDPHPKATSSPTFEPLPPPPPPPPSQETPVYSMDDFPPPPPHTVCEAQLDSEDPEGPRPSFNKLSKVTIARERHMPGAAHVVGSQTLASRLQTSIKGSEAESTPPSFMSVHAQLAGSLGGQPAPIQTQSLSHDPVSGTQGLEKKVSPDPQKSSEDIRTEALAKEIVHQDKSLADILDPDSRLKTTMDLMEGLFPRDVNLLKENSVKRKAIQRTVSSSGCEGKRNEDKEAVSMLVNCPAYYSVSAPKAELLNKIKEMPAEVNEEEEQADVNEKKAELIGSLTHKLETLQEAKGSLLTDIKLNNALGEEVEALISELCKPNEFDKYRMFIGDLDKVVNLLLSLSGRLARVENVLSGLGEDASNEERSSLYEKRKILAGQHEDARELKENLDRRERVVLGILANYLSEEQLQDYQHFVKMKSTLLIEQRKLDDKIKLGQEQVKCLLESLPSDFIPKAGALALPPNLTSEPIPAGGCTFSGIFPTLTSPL
# UniProt Q8NCD3, whole entry: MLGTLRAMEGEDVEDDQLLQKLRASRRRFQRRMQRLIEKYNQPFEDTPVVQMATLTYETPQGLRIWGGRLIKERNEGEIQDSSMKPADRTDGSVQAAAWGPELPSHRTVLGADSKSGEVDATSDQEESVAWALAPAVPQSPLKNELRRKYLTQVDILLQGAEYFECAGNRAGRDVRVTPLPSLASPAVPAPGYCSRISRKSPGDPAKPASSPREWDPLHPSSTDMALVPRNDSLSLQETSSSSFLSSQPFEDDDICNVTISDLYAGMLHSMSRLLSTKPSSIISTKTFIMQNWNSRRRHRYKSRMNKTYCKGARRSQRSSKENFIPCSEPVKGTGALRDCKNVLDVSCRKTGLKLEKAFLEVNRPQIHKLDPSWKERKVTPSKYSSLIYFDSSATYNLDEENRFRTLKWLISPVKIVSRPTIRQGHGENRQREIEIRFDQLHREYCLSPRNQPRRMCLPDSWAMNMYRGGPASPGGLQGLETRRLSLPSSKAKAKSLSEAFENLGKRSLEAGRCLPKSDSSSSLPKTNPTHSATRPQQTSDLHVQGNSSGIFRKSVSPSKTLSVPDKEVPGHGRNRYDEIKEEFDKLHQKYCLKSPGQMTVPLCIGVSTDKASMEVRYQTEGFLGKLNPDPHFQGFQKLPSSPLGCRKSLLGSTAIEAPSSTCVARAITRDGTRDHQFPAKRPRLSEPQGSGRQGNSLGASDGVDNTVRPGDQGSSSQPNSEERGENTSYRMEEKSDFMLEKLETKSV
# This is one part of the list. This is a noisy data set.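 Many melting curves are irregular; where none melted, Tm was taken as 64 °C.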
# Compound: CCc1cnccc1C(=O)Nc1cc2c(cc1F)NC(=O)CC2
# Test: melting temperature shift (DMSO Tm minus MBE1-treated Tm) in cellular thermal proteome profiling; higher = less thermal stabilization by MBE1 (negative = stabilized by MBE1)
# Conditions: A375; MBE1 concentration: 1 uM
row,Target,melting temperature shift
1,NOA1 (UniProt Q8NC60),-1.18 °C
2,UniProt Q8NB15,-0.995 °C
3,PLA2G15 (UniProt Q8NCC3),-2.93 °C
4,UniProt Q8TCA0,-1.09 °C
5,UniProt Q8TCT8,2.39 °C
6,UniProt Q8NFJ9,1.58 °C
7,UniProt Q8WUN7,-0.268 °C
8,TSEN15 (UniProt Q8WW01),-1.11 °C
9,PNISR (UniProt Q8TF01),-3.15 °C
10,EXOC6 (UniProt Q8TAG9),-0.732 °C
11,PNPT1 (UniProt Q8TCS8),-0.0733 °C
12,UniProt Q8NFZ8,-2.73 °C
13,B3GALNT2 (UniProt Q8NCR0),-4.51 °C
14,CDC26 (UniProt Q8NHZ8),-0.589 °C
15,PCNP (UniProt Q8WW12),-2.8 °C
16,GADD45GIP1 (UniProt Q8TAE8),-2.11 °C
17,UniProt Q8NFZ0,-4.29 °C

# 3 consecutive entries out of the list so far, quoted:
row,Target,melting temperature shift
9,PNISR (UniProt Q8TF01),-3.15 °C
10,EXOC6 (UniProt Q8TAG9),-0.732 °C
11,PNPT1 (UniProt Q8TCS8),-0.0733 °C

# Continuation.

row,Target,melting temperature shift
1,PDPR (UniProt Q8NCN5),-0.0537 °C
2,BICD2 (UniProt Q8TD16),-0.269 °C
3,CMAS (UniProt Q8NFW8),-0.0244 °C
4,UniProt Q8WUY3,0.966 °C
5,UniProt Q8TEV9,-0.148 °C
6,UniProt Q8WUY8,0.837 °C
7,TTC13 (UniProt Q8NBP0),0.0488 °C
8,UniProt Q8TF72,-1.81 °C
9,UniProt Q8N9E0,-3.62 °C
10,ANKRD52 (UniProt Q8NB46),-0.442 °C
11,CACTIN (UniProt Q8WUQ7),-0.488 °C
12,LSM14A (UniProt Q8ND56),0.751 °C
13,UniProt Q8NCD3,-0.365 °C
14,UniProt Q8WUJ1,0.861 °C
15,DIS3L (UniProt Q8TF46),-0.762 °C
16,SPC24 (UniProt Q8NBT2),0.537 °C
17,UniProt Q8WVF1,0.33 °C
